Test results reported in PubChem BioAssay AID662 (National Center for Advancing Translational Sciences (NCATS), 2007).
Values joined by “and” are separate entries in the source; they are usually repeats but may differ in a detail not shown here. Equal values may be shown once. The list shows a part of the results. Further columns of the screen follow, without active or inactive calls. Compounds called inactive in the main read-out are mostly missing here. Potencies come from curve fits of mixed quality, noted in brackets.

Assay: Cell signaling CRE-BLA (Fsk stim)
Settings: CHO CRE-bla reporter (cAMP response element driving beta-lactamase), forskolin EC10, beta-lactamase ratio; measured here: 460 nm blue channel
Summary of the method: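 CRE-bla CHO reporter cells treated with compound titration plus EC10 NKH 477 (water-soluble forskolin), incubated 3 h at 37 °C; CCF4 loading 2 h at room temperature, 460/530 nm emission ratio read, AC50 values derived for positive or negative modulators.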

**Q.** Which AC50 does the source give for `COc1ccc(-n2nc(C(=O)Nc3ccc4c(c3)OCO4)c3ccccc3c2=O)cc1` here?
**A.** 3.16 µM [rising, partial curve]

**Q.** For `CC1=C(C(=O)OCCOC(C)C)C(c2cccnc2)C2=C(CCCC2=O)N1` (stereo not given), which AC50 is on record?
**A.** 12.6 µM [rising, single point]

**Q.** With `Cc1cnc(C(=O)Nc2ccc(N3CCOCC3)cc2)cn1` as the compound, how does the AC50 read?
**A.** 0.0501 µM [falling, partial curve, poor fit]

**Q.** Which AC50 does the source give for `COc1ccc(-c2cc(-c3cccs3)c(C#N)c(SCC(=O)NCc3ccco3)n2)cc1` here?
**A.** 3.16 µM [rising, partial curve]

**Q.** With `Cc1cc(NS(=O)(=O)c2ccccc2)n(-c2ccccc2)n1` as the compound, how does the AC50 read?
**A.** 25.1 µM [rising, single point]

**Q.** For `CCOC(=O)CSc1nnc(CSc2nc(C)cc(C)n2)n1Cc1ccco1`, which AC50 is on record?
**A.** 0.0316 µM [falling, partial curve]

**Q.** Which AC50 does the source give for `Cc1cc(C)n(-c2nc(-c3cccc(Cl)c3)cs2)n1` here?
**A.** 1 µM [rising, partial curve]

**Q.** For `COC(=O)CSc1nc(N)c(C#N)c(C(C)C)c1C#N`, which AC50 is on record?
**A.** 25.1 µM [rising, single point]

**Q.** Which AC50 does the source give for `CCOC(=O)c1c2n(c3c(NCc4ccccc4)ncnc13)CCCC2` here?
**A.** 10 µM [rising, partial curve]

**Q.** With `c1cc2c(cc1-c1cnc3n1CCC3)OCCO2` as the compound, how does the AC50 read?
**A.** 7.94 µM [falling, partial curve]

**Q.** With `CCCn1c(=O)c2[nH]c(-c3ccccc3)nc2n(CCC)c1=O` as the compound, how does the AC50 read?
**A.** 0.398 µM [rising, full curve, poor fit]

**Q.** For `CCCCC[C@H](CC(=O)NO)C(=O)N[C@@H](C(=O)N1CCC[C@H]1CO)C(C)C`, which AC50 is on record?
**A.** 31.6 µM [rising, single point]

**Q.** With `Cc1nn(-c2ccccc2)c2sc(C(=O)N3CCCCC3)cc12` as the compound, how does the AC50 read?
**A.** 3.16 µM [rising, full curve]

**Q.** With `CCOC(=O)c1ccc(NC(=O)CC2C(=O)N(c3ccc(F)cc3)C(=O)N2CCCOC)cc1` (stereo not given) as the compound, how does the AC50 read?
**A.** 0.631 µM [falling, full curve, poor fit]

**Q.** Which AC50 does the source give for `Cc1ccc(CNc2ncc(-c3ccc4c(c3)OCO4)n2C)cc1` here?
**A.** 0.398 µM [falling, full curve]

**Q.** With `COC(=O)C1=C(C)N(CCC2=CCCCC2)C(=O)C1` as the compound, how does the AC50 read?
**A.** 12.6 µM [falling, single point]

**Q.** With `CCSc1nc2c(c(=O)n1Cc1ccccc1)SC(C)C2` (stereo not given) as the compound, how does the AC50 read?
**A.** 10 µM [rising, single point]

**Q.** Which AC50 does the source give for `COC(=O)Cc1nc2ccccc2[nH]1` here?
**A.** 10 µM [rising, partial curve]

**Q.** For `Cn1nnc2cc(C(=O)N3CCSCC3)ccc21`, which AC50 is on record?
**A.** 0.794 µM [rising, full curve]

**Q.** With `O=C(c1cc(-c2cccs2)on1)N1CCN(c2ccc(F)cc2)CC1` as the compound, how does the AC50 read?
**A.** 0.1 µM [falling, full curve]

**Q.** Which AC50 does the source give for `COc1ccc(NC(=O)c2ccc(S(=O)(=O)N3CCOCC3)cc2)c(OC)c1` here?
**A.** 3.16 µM [falling, single point]

**Q.** With `Cn1c(=O)c2cc(S(=O)(=O)Nc3ccc4c(c3)OCO4)ccc2n(C)c1=O` as the compound, how does the AC50 read?
**A.** 0.00316 µM [falling, full curve, poor fit]

**Q.** For `Cc1ccc(-c2nnc3n2N=C(c2ccccc2)CS3)cc1`, which AC50 is on record?
**A.** 5.01 µM [rising, partial curve]

**Q.** For `N#CCC(=O)N1CCn2c1nc1ccccc12`, which AC50 is on record?
**A.** 5.01 µM [falling, single point]

**Q.** Which AC50 does the source give for `COc1cccc(C2C=C(c3cccs3)Nc3ncnn32)c1OC` (stereo not given) here?
**A.** 12.6 µM [rising, partial curve]

**Q.** Which AC50 does the source give for `CCn1c(-c2ccc(OC)c(OC)c2)n[nH]c1=S` here?
**A.** 10 µM [rising, partial curve]

**Q.** For `O=c1cc(-c2ccccc2)[nH]c2ccccc12`, which AC50 is on record?
**A.** 5.01 µM [rising, partial curve]

**Q.** Which AC50 does the source give for `COc1ccc(OC)c(C(c2nnnn2Cc2ccccc2)N2CCN(C3CCCCC3)CC2)c1` (stereo not given) here?
**A.** 5.01 µM [falling, single point]

**Q.** Which AC50 does the source give for `CN(C)CCCN1c2ccccc2Sc2ccc3ccccc3c21` here?
**A.** 5.01 µM [rising, single point]

**Q.** With `COc1cccc(/C(O)=C2/C(=O)C(=O)N(c3cc(C)on3)C2c2cccs2)c1` (stereo not given) as the compound, how does the AC50 read?
**A.** 3.16 µM [rising, single point]

**Q.** Which AC50 does the source give for `Cc1ccc(F)cc1NC(=O)c1cccc(N(C)C)c1` here?
**A.** 5.01 µM [falling, single point]

**Q.** For `CCOc1ccc(CCNC(=O)C2CCCN(C(=O)N(C)C)C2)cc1OCC` (stereo not given), which AC50 is on record?
**A.** 25.1 µM [falling, single point]

**Q.** For `COc1ccccc1N1CCN(C(=O)c2ccc3c(=O)n(Cc4ccco4)c(=S)[nH]c3c2)CC1`, which AC50 is on record?
**A.** 10 µM [rising, partial curve]

**Q.** With `COC(=O)c1c(-c2cccs2)csc1NC(=O)c1cccnc1` as the compound, how does the AC50 read?
**A.** 2 µM [rising, partial curve]

**Q.** Which AC50 does the source give for `CN1CCN(S(=O)(=O)c2cccc(C(=O)Nc3sc4c(c3C(N)=O)CCCC4)c2)CC1` here?
**A.** 1.26 µM [rising, full curve]

**Q.** For `COc1ccccc1N1CCN(C(=O)c2cc(-c3cccc(Cl)c3)on2)CC1`, which AC50 is on record?
**A.** 25.1 µM [falling, single point]

**Q.** For `Cc1ccc(CNC(=O)c2cc3c(-c4ccc(Cl)cc4)nn(C)c3s2)o1`, which AC50 is on record?
**A.** 2.51 µM [rising, full curve, poor fit]

**Q.** Which AC50 does the source give for `NCCC[C@@H](CC(=O)N[C@@H]1CCCC[C@H]1C(=O)N[C@H](CC(=O)N[C@@H](CCC(=O)O)CC(=O)O)Cc1c[nH]c2ccccc12)NC(=O)C[C@H](CO)NC(=O)[C@@H]1CCCC[C@H]1N` here?
**A.** 12.6 µM [falling, partial curve]

**Q.** With `Cc1ccc(C)c2[nH]c(=O)c(CCNC(=O)C(C)(C)C)cc12` as the compound, how does the AC50 read?
**A.** 5.01 µM [rising, single point]

**Q.** For `CCOC(=O)CSc1nc2ccc(N3CCOCC3)cc2c(=O)n1Cc1ccc2c(c1)OCO2`, which AC50 is on record?
**A.** 0.316 µM [rising, partial curve]

**Q.** With `CCCc1[nH]nc2c1C(c1ccc(OC)c(CSC3=NCCS3)c1)C(C#N)=C(N)O2` (stereo not given) as the compound, how does the AC50 read?
**A.** 12.6 µM [rising, partial curve]

**Q.** With `O=C(CCc1ccccc1)Nc1ncn[nH]1` as the compound, how does the AC50 read?
**A.** 1.58 µM [falling, partial curve]

**Q.** For `CCOC(=O)c1cc2c(N)c(C(=O)c3cc(C#N)c(SC)nc3C)sc2nc1C`, which AC50 is on record?
**A.** 10 µM [rising, partial curve]

**Q.** For `CC(C)(C)c1cnnn1-c1ccc(NC(=O)c2ccc3c(c2)OCO3)cc1`, which AC50 is on record?
**A.** 10 µM [rising, partial curve]

**Q.** Which AC50 does the source give for `COc1ccccc1N1CCN(Cc2cc(Br)c(O)c3ncccc23)CC1` here?
**A.** 10 µM [falling, partial curve]

**Q.** With `C=CCn1c(Br)nc2c1c(=O)[nH]c(=O)n2C` as the compound, how does the AC50 read?
**A.** 25.1 µM [rising, single point]

**Q.** Which AC50 does the source give for `COc1ccc(CCNC(=O)CCN2C(=O)COc3ccc(C)cc32)cc1OC` here?
**A.** 10 µM [rising, partial curve]

**Q.** Which AC50 does the source give for `O=C(c1csc2c1CCCC2)N1CCN(c2ccccc2)CC1` here?
**A.** 0.0398 µM [falling, full curve, poor fit]

**Q.** With `Cc1cc(C)cc(NS(=O)(=O)c2ccc3[nH]cc(C(=O)NCc4ccco4)c(=O)c3c2)c1` as the compound, how does the AC50 read?
**A.** 25.1 µM [falling, single point]

**Q.** For `CN(c1ccccc1)S(=O)(=O)c1cc(C(=O)N2CCN(c3ccccn3)CC2)ccc1Cl`, which AC50 is on record?
**A.** 0.0251 µM [falling, full curve, poor fit]

**Q.** Which AC50 does the source give for `O=c1c(-c2ccccc2)nc2cnc(N3CCNCC3)nc2n1Cc1ccc(F)cc1` here?
**A.** 2.51 µM [rising, full curve]

**Q.** With `COc1ccc(Oc2ncc3nc(-c4ccc(OC)cc4)c(=O)n(C)c3n2)cc1` as the compound, how does the AC50 read?
**A.** 15.8 µM [rising, partial curve]

**Q.** For `Cc1cc(C)c(NC(=O)c2cc3c(nc4sccn43)s2)c(C)c1`, which AC50 is on record?
**A.** 1 µM [rising, full curve, poor fit]

**Q.** With `COc1ccc(CCN(C)CCc2ccc(OC)c(OC)c2)cc1OC` as the compound, how does the AC50 read?
**A.** 0.794 nM [falling, full curve, poor fit] and 12.6 µM [rising, partial curve, poor fit]

**Q.** For `Cc1ccccc1-c1nc(CN2CCC(C(=O)NCc3ccco3)CC2)c(C)o1`, which AC50 is on record?
**A.** 5.01 µM [falling, single point]

**Q.** With `COc1ccc(C)cc1NC(=O)c1nnn(Cc2cc(C)ccc2C)c1N` as the compound, how does the AC50 read?
**A.** 3.16 µM [rising, full curve, poor fit]

**Q.** Which AC50 does the source give for `CCc1ccc(S(=O)(=O)c2n[nH]n3c2nc(=O)c2ccccc23)cc1` here?
**A.** 0.02 µM [rising, full curve, poor fit]

**Q.** For `COCCn1c(=O)c(-c2cccs2)nc2cnc(Oc3ccccc3)nc21`, which AC50 is on record?
**A.** 12.6 µM [rising, partial curve]

**Q.** With `Cc1cccc(NC(=O)CSc2nnc(-c3cc(C)n(-c4ccccc4)c3C)o2)c1C` as the compound, how does the AC50 read?
**A.** 0.126 µM [falling, full curve, poor fit]

**Q.** For `CCn1c(=S)sc2nc(C)sc21`, which AC50 is on record?
**A.** 12.6 µM [rising, single point]

**Q.** Which AC50 does the source give for `OC(CCN1CCOCC1)(c1ccc(Cl)cc1)C1CCCCC1` (stereo not given) here?
**A.** 0.251 µM [falling, partial curve]

**Q.** With `CCOC(=O)c1c(C)[nH]c(C(=O)COC(=O)c2cnc(C)cn2)c1C` as the compound, how does the AC50 read?
**A.** 20 µM [rising, single point]

**Q.** With `CC(C)Oc1cccc(-n2c(CCc3c[nH]c4ccc(Br)cc34)nc3ccccc3c2=O)c1` as the compound, how does the AC50 read?
**A.** 0.158 µM [rising, full curve, poor fit]

**Q.** For `Cc1cccc(NC(=O)C2CCCN(S(=O)(=O)c3cccc4cccnc34)C2)c1` (stereo not given), which AC50 is on record?
**A.** 25.1 µM [falling, single point]

**Q.** With `O=C(Cn1c(=O)n(CCC(=O)N2CCc3ccccc3C2)c(=O)c2ccccc21)NCC1CCCO1` (stereo not given) as the compound, how does the AC50 read?
**A.** 15.8 µM [rising, single point]
